Values from PubChem BioAssay AID504744 (Drosophila RNAi Screening Center, 2011).
In all, the deposit lists about 23,000 reagents; shown is a random part of those that have a named target and a result. In the full data, 98 (0.43%) were called active. 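Only hit calls are given; the phospho-dAkt signals, z-scores and hit direction were not deposited.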 Names joined by + are all predicted targets of the reagent. No sequences are given here.

Aim: 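Uncover factors, including feedback loops, that control dAkt activation in fly cells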 (primary screen)
Cell system: Drosophila Kc167 cells
Reagent: long dsRNA against Drosophila genes, 250 ng dsRNA per well of a 384-well plate
Time to read-out: 3 days of knock-down, then overnight serum-free starvation before stimulation
Treatment: bovine insulin at 387 nM for 10 minutes after 12 h without serum
Measured: 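In-cell antibody fluorescence for phospho-dAkt in each well over DNA-dye signal, with log2 residuals expressed as z-scores adjusted for cell count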
Active means: 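Hit in the insulin screen when the two-replicate mean z-score is more extreme than plus or minus 2.5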

no.	predicted target	dsRNA	outcome
1	peg	DRSC15216	inactive
2	spn-F	DRSC14475	inactive
3	CG4390	DRSC15572	inactive
4	Spn28B	DRSC02982	inactive
5	Efhc1.2	DRSC06027	inactive
6	CG5292	DRSC15763	inactive
7	CG1416	DRSC03706	inactive
8	Ir48c	DRSC06154	inactive
9	ctp	DRSC18758	inactive
10	Wbp2	DRSC09821	inactive
11	Prosbeta4R2	DRSC00503	inactive
12	Cyp4c3	DRSC16631	inactive
13	CG12107	DRSC06102	inactive
14	fz4	DRSC18780	inactive
15	CG17264	DRSC00500	inactive
16	nompB	DRSC03701	inactive
17	nompB	DRSC03731	inactive
18	CG9083	DRSC04625	inactive
19	CG14857	DRSC14981	inactive
20	RYa-R	DRSC16757	inactive
21	CG30127 (retired record)	DRSC05785	inactive
22	CG30127 (retired record)	DRSC05786	inactive
23	FoxK	DRSC09859	inactive
24	Rcd5	DRSC08180	inactive
25	CG13566	DRSC04203	inactive
26	Doa	DRSC13892	inactive
27	Doa	DRSC13893	inactive
28	Doa	DRSC13895	inactive
29	Doa	DRSC13896	inactive
30	Doa	DRSC13897	inactive
31	Doa	DRSC16650	inactive
32	CG42735 (retired record)	DRSC00921	inactive
33	CG42561	DRSC05676	inactive
34	CG11211	DRSC04851	inactive
35	usp	DRSC18847	inactive
36	Act57B	DRSC04042	inactive
37	RpL13A	DRSC12265	inactive
38	CG14673 (retired record)	DRSC12259	inactive
39	Pbp45	DRSC16509	inactive
40	CG30096	DRSC21744	inactive
41	shg	DRSC04714	inactive
42	tsu	DRSC07265	inactive
43	CG13868	DRSC06427	inactive
44	CG9630	DRSC16527	inactive
45	Cbp20	DRSC16601	inactive
46	CG9344	DRSC04541	inactive
47	CG31266	DRSC15747	inactive
48	CG12479	DRSC19459	inactive
49	CG18268 + CG3014	DRSC15319	inactive
50	Or35a	DRSC03389	inactive
51	CG32642	DRSC18959	inactive
52	CG31431	DRSC14589	inactive
53	Gpxl	DRSC06538	inactive
54	Marf1	DRSC03747	inactive
55	Marf1	DRSC03774	inactive
56	CG17508	DRSC07771	inactive
57	Oseg6	DRSC06066	inactive
58	Mob2	DRSC09117	inactive
59	Mob2	DRSC09119	inactive
60	Mob2	DRSC09856	inactive
61	CG43861	DRSC02308	inactive
62	Gdap1	DRSC10437	inactive
63	Hesr	DRSC19965	inactive
64	Cpsf5	DRSC10374	inactive
65	Mal-A6	DRSC07233	inactive
66	Gasz	DRSC06829	inactive
67	CG14442	DRSC17935	inactive
68	CG14502	DRSC06473	inactive
69	CG11350	DRSC08181	inactive
70	Osi6	DRSC12128	inactive
71	MICAL-like	DRSC09829	inactive
72	Ccm3	DRSC15711	inactive
73	Galk	DRSC10500	inactive
74	CG34406 (retired record)	DRSC00523	inactive
75	CG34406 (retired record)	DRSC00606	inactive
76	CG13630	DRSC14631	inactive
77	CG2901	DRSC18239	inactive
78	CG32448	DRSC22657	inactive
79	CG34454	DRSC07864	inactive
80	Ugt304A1	DRSC15127	inactive
81	Vps15	DRSC16553	inactive
82	CG13004	DRSC19523	inactive
83	CG31068	DRSC13820	inactive
84	dmrt99B	DRSC15045	inactive
85	g	DRSC20335	inactive
86	CG3106	DRSC18279	inactive
87	CG31717	DRSC01121	inactive
88	Cyp9h1	DRSC07391	inactive
89	SecCl	DRSC10887	inactive
90	CG31251	DRSC16247	inactive
91	mRpS35	DRSC08551	inactive
92	wrd	DRSC16337	inactive
93	wrd	DRSC16344	inactive
94	Ugt49C1	DRSC04252	inactive
95	Pdp	DRSC17825	inactive
96	Ddrgk1	DRSC15897	inactive
97	CG34008	DRSC13428	inactive
98	Cyp6a15Psi	DRSC07377	inactive
99	bark	DRSC00635	inactive
100	CG2211	DRSC08559	inactive
101	CG12746	DRSC12218	inactive
102	CG40191	DRSC21041	inactive
103	Acbp5	DRSC10548	inactive
104	CG31198	DRSC15891	inactive
105	Usp1	DRSC14155	inactive
106	CG9917	DRSC20218	inactive
107	TwdlX	DRSC19151	inactive
108	CG34269	DRSC07884	inactive
109	CG6296	DRSC16013	inactive
110	rump	DRSC16480	inactive
111	CG17625	DRSC15249	inactive
112	CG31678	DRSC02618	inactive
113	CG31678	DRSC02619	inactive
114	fend	DRSC17601	inactive
115	fend	DRSC17867	inactive
116	stai	DRSC22235	inactive
117	Sec24AB	DRSC06478	inactive
118	alpha-Est4aPsi	DRSC12473	inactive
119	CG30098	DRSC05605	inactive
120	CG12116	DRSC17812	inactive
121	Pde1c	DRSC02421	inactive
122	Pde1c	DRSC02422	inactive
123	Pde1c	DRSC02423	inactive
124	Pde1c	DRSC02424	inactive
125	Pde1c	DRSC02425	inactive
126	Pde1c	DRSC02426	inactive
127	CG1299	DRSC08300	inactive
128	RpL21	DRSC03704	inactive
129	CG32488	DRSC08549	inactive
130	CG32488	DRSC21537	inactive
131	Cyp313a5	DRSC16628	inactive
132	CG18132	DRSC00518	inactive
133	asRNA:CR31084	DRSC21649	inactive
134	CG7101	DRSC20023	inactive
135	CG7101	DRSC22845	inactive
136	Sox14	DRSC04656	inactive
137	gammaSnap1	DRSC04686	inactive
138	CG5355	DRSC02844	inactive
139	Cpr66Cb	DRSC10769	inactive
140	CG10298	DRSC12522	inactive
141	CG5357 (retired record)	DRSC04497	inactive
142	CG13038	DRSC09919	inactive
143	CG8119	DRSC20083	inactive
144	armi	DRSC08193	inactive
145	ND-MNLL	DRSC18159	inactive
146	Tim9a	DRSC19753	inactive
147	CG31882	DRSC01084	inactive
148	Rcd4	DRSC02597	inactive
149	Sfp38D	DRSC01810	inactive
150	CG7384	DRSC03053	inactive
151	Ccp84Ad	DRSC12589	inactive
152	Ccp84Ad	DRSC22854	inactive
153	OS9 + Hf	DRSC03392	inactive
154	CG32444	DRSC11677	inactive
155	Hsp60B	DRSC00542	inactive
156	Pgant8	DRSC10801	inactive
157	Pat1	DRSC17750	inactive

Already shown: 24 of the entries above.
no.	predicted target	dsRNA	outcome
3	CG4390	DRSC15572	inactive
4	Spn28B	DRSC02982	inactive
5	Efhc1.2	DRSC06027	inactive
6	CG5292	DRSC15763	inactive
7	CG1416	DRSC03706	inactive
8	Ir48c	DRSC06154	inactive
9	ctp	DRSC18758	inactive
10	Wbp2	DRSC09821	inactive
11	Prosbeta4R2	DRSC00503	inactive
12	Cyp4c3	DRSC16631	inactive
13	CG12107	DRSC06102	inactive
14	fz4	DRSC18780	inactive
15	CG17264	DRSC00500	inactive
16	nompB	DRSC03701	inactive
17	nompB	DRSC03731	inactive
18	CG9083	DRSC04625	inactive
19	CG14857	DRSC14981	inactive
20	RYa-R	DRSC16757	inactive
21	CG30127 (retired record)	DRSC05785	inactive
22	CG30127 (retired record)	DRSC05786	inactive
23	FoxK	DRSC09859	inactive
24	Rcd5	DRSC08180	inactive
25	CG13566	DRSC04203	inactive
26	Doa	DRSC13892	inactive
